{"source": "PubChem BioAssay AID686938 (Drosophila RNAi Screening Center, 2013)", "assay": "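Knock-downs reducing store-operated calcium influx in Drosophila cells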 (primary screen)", "cell system": "Drosophila S2R+ cells", "reagents": "long dsRNA against Drosophila genes, about 0.25 µg dsRNA per well, roughly 10,000 cells", "timing": "5 days of knock-down before the calcium assay", "challenge": "thapsigargin (SERCA pump blocker) to empty calcium stores; entry signal taken 4 min after adding it", "measured": "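Duplicate raw fluo-4 intensities per well from a plate reader, at rest and four minutes after thapsigargin emptied calcium stores; entry-to-rest ratio filled for only some wells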", "direction": "calcium entry signal: higher = stronger calcium signal after store depletion; entry to resting ratio: higher = more calcium entry relative to resting level; resting calcium signal: higher = higher resting calcium signal", "units": "calcium entry signal in fluorescence units; resting calcium signal in fluorescence units", "rule for the call": "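Hit if the duplicate-averaged plate z-score for entry over resting signal is under −3; wells with weak total dye signal (Fmax z < −2) or more than 5 off-targets removed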", "meaning of the calls": "active = strongly reduced calcium entry; inactive = no strong reduction", "note": "In all, the deposit lists about 23,000 reagents; below is an unselected part of those that have a named target and a result. Over the whole deposit, 75 (0.33%) were called active. 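Raw plate signals without normalisation; calls rest on plate z-scores that were not deposited; ratio present for only 364 wells.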 Unmarked entries are inactive. Reagents against one gene are numbered here. No sequences are given here. Not given: the dose of the treatment."}
{"gene":"CG14391","dsRNA no.":1,"calcium entry signal, replicate 1":3.39e7,"calcium entry signal, replicate 2":4.11e7,"resting calcium signal, replicate 1":1.75e7,"resting calcium signal, replicate 2":2.03e7}
{"gene":"CG14204","dsRNA no.":1,"calcium entry signal, replicate 1":3.34e7,"calcium entry signal, replicate 2":4.43e7,"resting calcium signal, replicate 1":2.01e7,"resting calcium signal, replicate 2":2.09e7}
{"gene":"CG9254","dsRNA no.":1,"calcium entry signal, replicate 1":3.38e7,"calcium entry signal, replicate 2":2.53e7,"resting calcium signal, replicate 1":1.59e7,"resting calcium signal, replicate 2":1.23e7}
{"gene":"Mes2 (Mesoderm-expressed 2)","dsRNA no.":1,"calcium entry signal, replicate 1":2.47e7,"calcium entry signal, replicate 2":3.65e7,"resting calcium signal, replicate 1":1.39e7,"resting calcium signal, replicate 2":1.62e7}
{"gene":"Mes2 (Mesoderm-expressed 2)","dsRNA no.":2,"calcium entry signal, replicate 1":3.61e7,"calcium entry signal, replicate 2":2.72e7,"resting calcium signal, replicate 1":1.67e7,"resting calcium signal, replicate 2":1.44e7}
{"gene":"CG46339","dsRNA no.":1,"calcium entry signal, replicate 1":3.88e7,"calcium entry signal, replicate 2":4.48e7,"resting calcium signal, replicate 1":1.72e7,"resting calcium signal, replicate 2":2.14e7}
{"gene":"CG9586","dsRNA no.":1,"calcium entry signal, replicate 1":3.76e7,"calcium entry signal, replicate 2":6.01e7,"resting calcium signal, replicate 1":1.69e7,"resting calcium signal, replicate 2":2.57e7}
{"gene":"spz6 (spatzle 6)","dsRNA no.":1,"calcium entry signal, replicate 1":5.01e7,"resting calcium signal, replicate 1":2.58e7}
{"gene":"xmas-1 (retired record)","dsRNA no.":1,"calcium entry signal, replicate 1":4.86e7,"calcium entry signal, replicate 2":2.97e7,"resting calcium signal, replicate 1":2.40e7,"resting calcium signal, replicate 2":1.44e7}
{"gene":"CG18641","dsRNA no.":1,"calcium entry signal, replicate 1":3.29e7,"calcium entry signal, replicate 2":2.98e7,"resting calcium signal, replicate 1":1.50e7,"resting calcium signal, replicate 2":1.35e7}
{"gene":"qjt (quijote)","dsRNA no.":1,"calcium entry signal, replicate 1":3.93e7,"calcium entry signal, replicate 2":4.36e7,"resting calcium signal, replicate 1":1.71e7,"resting calcium signal, replicate 2":1.87e7}

Continued (3 carried over from the part before).
{"gene":"xmas-1 (retired record)","dsRNA no.":1,"calcium entry signal, replicate 1":4.86e7,"calcium entry signal, replicate 2":2.97e7,"resting calcium signal, replicate 1":2.40e7,"resting calcium signal, replicate 2":1.44e7}
{"gene":"CG18641","dsRNA no.":1,"calcium entry signal, replicate 1":3.29e7,"calcium entry signal, replicate 2":2.98e7,"resting calcium signal, replicate 1":1.50e7,"resting calcium signal, replicate 2":1.35e7}
{"gene":"qjt (quijote)","dsRNA no.":1,"calcium entry signal, replicate 1":3.93e7,"calcium entry signal, replicate 2":4.36e7,"resting calcium signal, replicate 1":1.71e7,"resting calcium signal, replicate 2":1.87e7}
{"gene":"Gr59f (Gustatory receptor 59f)","dsRNA no.":1,"calcium entry signal, replicate 1":3.79e7,"calcium entry signal, replicate 2":3.73e7,"resting calcium signal, replicate 1":1.83e7,"resting calcium signal, replicate 2":1.81e7}
{"gene":"Ccp84Ae","dsRNA no.":1,"calcium entry signal, replicate 1":4.85e7,"calcium entry signal, replicate 2":3.81e7,"resting calcium signal, replicate 1":2.30e7,"resting calcium signal, replicate 2":1.66e7}
{"gene":"CG31460","dsRNA no.":1,"calcium entry signal, replicate 1":2.37e7,"calcium entry signal, replicate 2":3.17e7,"resting calcium signal, replicate 1":1.10e7,"resting calcium signal, replicate 2":1.41e7}
{"gene":"Gr28a (Gustatory receptor 28a)","dsRNA no.":1,"calcium entry signal, replicate 1":3.38e7,"calcium entry signal, replicate 2":4.28e7,"resting calcium signal, replicate 1":1.81e7,"resting calcium signal, replicate 2":1.93e7}
{"gene":"Mcm2 (Minichromosome maintenance 2)","dsRNA no.":1,"calcium entry signal, replicate 1":4.37e7,"calcium entry signal, replicate 2":5.86e7,"resting calcium signal, replicate 1":2.18e7,"resting calcium signal, replicate 2":2.48e7}
{"gene":"Cadps (Calcium-dependent secretion activator)","dsRNA no.":1,"calcium entry signal, replicate 1":5.14e7,"calcium entry signal, replicate 2":4.56e7,"resting calcium signal, replicate 1":2.38e7,"resting calcium signal, replicate 2":1.95e7}
{"gene":"Cadps (Calcium-dependent secretion activator)","dsRNA no.":2,"calcium entry signal, replicate 1":3.88e7,"calcium entry signal, replicate 2":6.62e7,"resting calcium signal, replicate 1":1.84e7,"resting calcium signal, replicate 2":3.07e7}
{"gene":"Ccp84Af","dsRNA no.":1,"calcium entry signal, replicate 1":4.48e7,"calcium entry signal, replicate 2":3.32e7,"resting calcium signal, replicate 1":1.71e7,"resting calcium signal, replicate 2":1.44e7}
{"gene":"fuss (fussel)","dsRNA no.":1,"calcium entry signal, replicate 1":4.00e7,"calcium entry signal, replicate 2":5.78e7,"entry to resting ratio":2,"resting calcium signal, replicate 1":1.99e7,"resting calcium signal, replicate 2":2.38e7}
{"gene":"fuss (fussel)","dsRNA no.":2,"calcium entry signal, replicate 1":3.57e7,"calcium entry signal, replicate 2":3.11e7,"resting calcium signal, replicate 1":1.98e7,"resting calcium signal, replicate 2":1.44e7}
{"gene":"CG2065","dsRNA no.":1,"calcium entry signal, replicate 1":4.24e7,"calcium entry signal, replicate 2":4.45e7,"resting calcium signal, replicate 1":2.41e7,"resting calcium signal, replicate 2":1.69e7}
{"gene":"CG2065","dsRNA no.":2,"calcium entry signal, replicate 1":2.07e7,"calcium entry signal, replicate 2":2.74e7,"resting calcium signal, replicate 1":1.13e7,"resting calcium signal, replicate 2":1.17e7}
{"gene":"fzy (fizzy)","dsRNA no.":1,"calcium entry signal, replicate 1":3.40e7,"calcium entry signal, replicate 2":2.77e7,"resting calcium signal, replicate 1":2.24e7,"resting calcium signal, replicate 2":1.58e7}
{"gene":"Snap29 (Synaptosomal-associated protein 29kDa)","dsRNA no.":1,"calcium entry signal, replicate 1":5.07e7,"calcium entry signal, replicate 2":5.22e7,"resting calcium signal, replicate 1":2.38e7,"resting calcium signal, replicate 2":2.29e7}
{"gene":"CG31804","dsRNA no.":1,"calcium entry signal, replicate 1":3.25e7,"calcium entry signal, replicate 2":4.15e7,"resting calcium signal, replicate 1":1.75e7,"resting calcium signal, replicate 2":1.93e7}
{"gene":"CG32453","dsRNA no.":1,"calcium entry signal, replicate 1":4.11e7,"calcium entry signal, replicate 2":3.67e7,"resting calcium signal, replicate 1":2.35e7,"resting calcium signal, replicate 2":1.81e7}
